Publication doi:10.1101/2022.12.10.519866 (bioRxiv, 2022)
These are yes or no findings as the source states them, for the method shown. In cells and extracts the contact can be indirect. A yes stands for co-enrichment or nearness to the bait. Other partners may have been found.

Amino acid sequences for entries named in this document (tags omitted).
UniProt O88738: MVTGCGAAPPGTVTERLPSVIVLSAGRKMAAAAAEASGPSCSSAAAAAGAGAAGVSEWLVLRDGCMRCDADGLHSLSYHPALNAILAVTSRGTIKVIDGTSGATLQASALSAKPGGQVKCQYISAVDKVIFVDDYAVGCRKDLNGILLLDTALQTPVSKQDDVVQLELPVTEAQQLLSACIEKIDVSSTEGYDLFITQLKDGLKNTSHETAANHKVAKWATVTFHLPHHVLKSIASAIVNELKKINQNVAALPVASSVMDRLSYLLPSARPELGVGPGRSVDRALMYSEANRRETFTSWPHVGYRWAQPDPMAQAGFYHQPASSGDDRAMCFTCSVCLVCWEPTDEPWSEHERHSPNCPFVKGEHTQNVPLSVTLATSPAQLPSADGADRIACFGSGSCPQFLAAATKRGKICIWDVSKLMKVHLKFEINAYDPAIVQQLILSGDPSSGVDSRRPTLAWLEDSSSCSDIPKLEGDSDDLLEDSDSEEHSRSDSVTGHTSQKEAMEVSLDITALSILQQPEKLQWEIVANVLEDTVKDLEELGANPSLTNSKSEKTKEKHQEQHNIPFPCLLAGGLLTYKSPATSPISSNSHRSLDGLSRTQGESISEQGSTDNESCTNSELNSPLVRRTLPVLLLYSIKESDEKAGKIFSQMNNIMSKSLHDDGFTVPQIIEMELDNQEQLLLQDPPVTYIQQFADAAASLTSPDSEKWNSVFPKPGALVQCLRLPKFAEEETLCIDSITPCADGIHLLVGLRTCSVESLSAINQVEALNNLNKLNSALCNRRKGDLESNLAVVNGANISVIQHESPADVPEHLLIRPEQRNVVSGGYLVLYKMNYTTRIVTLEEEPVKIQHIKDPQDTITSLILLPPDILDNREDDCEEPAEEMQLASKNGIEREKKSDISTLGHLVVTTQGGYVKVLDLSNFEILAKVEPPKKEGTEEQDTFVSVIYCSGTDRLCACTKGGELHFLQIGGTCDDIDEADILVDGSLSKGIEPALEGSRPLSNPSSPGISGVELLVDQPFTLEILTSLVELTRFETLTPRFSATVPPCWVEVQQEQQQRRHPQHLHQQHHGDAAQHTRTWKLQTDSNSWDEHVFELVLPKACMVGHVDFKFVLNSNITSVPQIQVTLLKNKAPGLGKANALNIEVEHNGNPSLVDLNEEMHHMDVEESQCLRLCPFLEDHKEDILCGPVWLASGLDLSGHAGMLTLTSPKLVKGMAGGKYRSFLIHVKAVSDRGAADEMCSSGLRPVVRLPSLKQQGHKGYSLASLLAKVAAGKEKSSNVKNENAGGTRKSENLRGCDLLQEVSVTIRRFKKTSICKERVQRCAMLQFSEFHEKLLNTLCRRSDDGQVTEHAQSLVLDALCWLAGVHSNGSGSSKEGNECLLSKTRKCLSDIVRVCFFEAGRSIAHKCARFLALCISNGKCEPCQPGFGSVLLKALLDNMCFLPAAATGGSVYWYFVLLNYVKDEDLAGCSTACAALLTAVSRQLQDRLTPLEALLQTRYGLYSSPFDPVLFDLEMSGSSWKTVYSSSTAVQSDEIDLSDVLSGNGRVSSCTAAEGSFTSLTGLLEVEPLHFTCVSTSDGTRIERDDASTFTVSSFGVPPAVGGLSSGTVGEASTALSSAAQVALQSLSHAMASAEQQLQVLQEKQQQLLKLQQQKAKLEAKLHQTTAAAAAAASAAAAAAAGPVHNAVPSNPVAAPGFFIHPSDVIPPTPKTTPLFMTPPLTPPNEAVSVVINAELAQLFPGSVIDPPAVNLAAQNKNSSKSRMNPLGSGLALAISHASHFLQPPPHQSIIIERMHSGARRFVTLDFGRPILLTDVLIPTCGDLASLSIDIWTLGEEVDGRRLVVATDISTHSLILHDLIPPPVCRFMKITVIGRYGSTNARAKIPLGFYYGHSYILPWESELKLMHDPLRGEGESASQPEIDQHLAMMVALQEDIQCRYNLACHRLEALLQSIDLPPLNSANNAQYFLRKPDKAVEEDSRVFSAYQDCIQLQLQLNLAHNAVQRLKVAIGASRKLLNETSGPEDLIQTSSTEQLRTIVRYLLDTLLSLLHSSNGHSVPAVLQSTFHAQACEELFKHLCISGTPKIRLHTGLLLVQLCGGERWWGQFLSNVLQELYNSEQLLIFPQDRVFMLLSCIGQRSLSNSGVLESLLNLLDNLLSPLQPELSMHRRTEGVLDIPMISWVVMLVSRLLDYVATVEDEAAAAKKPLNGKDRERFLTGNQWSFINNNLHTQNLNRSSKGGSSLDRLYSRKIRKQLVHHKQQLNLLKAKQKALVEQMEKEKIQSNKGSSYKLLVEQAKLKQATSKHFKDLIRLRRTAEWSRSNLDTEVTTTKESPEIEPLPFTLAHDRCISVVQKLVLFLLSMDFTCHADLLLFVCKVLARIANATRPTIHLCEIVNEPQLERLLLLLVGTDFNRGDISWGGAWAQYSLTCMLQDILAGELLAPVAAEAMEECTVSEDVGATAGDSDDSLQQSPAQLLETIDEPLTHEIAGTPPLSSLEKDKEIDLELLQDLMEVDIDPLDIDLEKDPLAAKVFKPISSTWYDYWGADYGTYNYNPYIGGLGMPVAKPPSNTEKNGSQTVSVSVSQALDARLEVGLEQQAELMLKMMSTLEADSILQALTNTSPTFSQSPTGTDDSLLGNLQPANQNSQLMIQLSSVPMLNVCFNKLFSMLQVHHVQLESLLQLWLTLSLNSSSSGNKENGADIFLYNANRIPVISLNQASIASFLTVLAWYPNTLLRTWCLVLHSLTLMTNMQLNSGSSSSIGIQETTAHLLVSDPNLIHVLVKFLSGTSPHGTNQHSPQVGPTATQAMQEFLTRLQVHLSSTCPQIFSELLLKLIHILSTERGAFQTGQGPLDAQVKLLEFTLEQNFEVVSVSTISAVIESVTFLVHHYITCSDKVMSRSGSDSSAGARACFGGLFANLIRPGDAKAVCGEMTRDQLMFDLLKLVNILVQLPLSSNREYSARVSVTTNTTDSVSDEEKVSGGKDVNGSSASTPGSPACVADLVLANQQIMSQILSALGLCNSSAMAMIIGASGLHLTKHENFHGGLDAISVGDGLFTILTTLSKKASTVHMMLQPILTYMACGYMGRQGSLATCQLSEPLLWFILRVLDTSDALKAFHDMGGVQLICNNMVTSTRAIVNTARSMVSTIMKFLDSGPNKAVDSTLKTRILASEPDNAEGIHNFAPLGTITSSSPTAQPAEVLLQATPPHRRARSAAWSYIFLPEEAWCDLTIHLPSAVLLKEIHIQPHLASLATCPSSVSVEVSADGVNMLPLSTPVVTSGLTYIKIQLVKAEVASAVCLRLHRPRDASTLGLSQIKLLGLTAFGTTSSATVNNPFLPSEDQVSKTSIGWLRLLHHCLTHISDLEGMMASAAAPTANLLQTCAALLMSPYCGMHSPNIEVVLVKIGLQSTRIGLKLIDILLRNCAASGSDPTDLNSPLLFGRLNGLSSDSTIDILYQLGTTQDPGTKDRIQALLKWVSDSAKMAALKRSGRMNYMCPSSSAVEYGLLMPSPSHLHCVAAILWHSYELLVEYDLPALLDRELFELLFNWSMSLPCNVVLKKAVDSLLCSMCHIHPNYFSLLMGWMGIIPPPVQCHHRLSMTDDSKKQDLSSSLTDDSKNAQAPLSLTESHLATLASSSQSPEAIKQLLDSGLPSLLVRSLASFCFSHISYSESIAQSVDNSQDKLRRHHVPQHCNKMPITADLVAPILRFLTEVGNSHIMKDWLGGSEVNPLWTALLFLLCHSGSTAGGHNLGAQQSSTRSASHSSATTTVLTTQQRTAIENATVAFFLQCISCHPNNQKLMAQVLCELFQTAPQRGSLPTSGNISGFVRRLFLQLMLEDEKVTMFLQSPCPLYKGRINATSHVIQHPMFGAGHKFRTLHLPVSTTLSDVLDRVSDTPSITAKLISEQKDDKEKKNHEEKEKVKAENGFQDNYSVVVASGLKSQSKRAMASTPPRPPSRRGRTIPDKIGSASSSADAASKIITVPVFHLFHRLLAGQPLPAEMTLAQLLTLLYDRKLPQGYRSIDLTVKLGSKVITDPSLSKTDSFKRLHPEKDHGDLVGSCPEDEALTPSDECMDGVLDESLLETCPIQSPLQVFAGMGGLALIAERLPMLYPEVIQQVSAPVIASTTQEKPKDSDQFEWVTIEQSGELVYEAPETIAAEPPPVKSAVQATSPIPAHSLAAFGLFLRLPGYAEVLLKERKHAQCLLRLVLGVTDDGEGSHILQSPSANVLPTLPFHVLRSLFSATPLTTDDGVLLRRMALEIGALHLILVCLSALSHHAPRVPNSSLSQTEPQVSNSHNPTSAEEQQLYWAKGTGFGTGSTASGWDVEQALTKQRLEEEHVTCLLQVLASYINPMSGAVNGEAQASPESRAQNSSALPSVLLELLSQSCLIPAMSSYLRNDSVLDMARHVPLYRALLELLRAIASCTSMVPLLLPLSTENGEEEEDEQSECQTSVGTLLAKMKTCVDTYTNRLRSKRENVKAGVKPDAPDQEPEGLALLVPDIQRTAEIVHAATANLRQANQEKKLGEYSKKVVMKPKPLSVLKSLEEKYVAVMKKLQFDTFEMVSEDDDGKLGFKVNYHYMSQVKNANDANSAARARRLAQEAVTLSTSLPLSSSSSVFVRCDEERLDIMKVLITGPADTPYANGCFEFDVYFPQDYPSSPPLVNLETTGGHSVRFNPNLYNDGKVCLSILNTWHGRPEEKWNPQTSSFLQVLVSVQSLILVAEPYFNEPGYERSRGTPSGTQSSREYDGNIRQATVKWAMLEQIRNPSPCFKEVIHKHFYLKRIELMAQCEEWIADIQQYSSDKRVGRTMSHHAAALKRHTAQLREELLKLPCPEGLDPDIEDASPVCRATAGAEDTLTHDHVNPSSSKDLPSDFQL

B1: caspase 6, endogenous in HEK293F cells (enzyme, UniProt P55212 1-293)
chain: MSSASGLRRGHPAGGEENMTETDAFYKREMFDPAEKYKMDHRRRGIALIFNHERFFWHLTLPERRGTCADRDNLTRRFSDLGFEVKCFNDLKAEELLLKIHEVSTVSHADADCFVCVFLSHGEGNHIYAYDAKIEIQTLTGLFKGDKCHSLVGKPKIFIIQACRGNQHDVPVIPLDVVDNQTEKLDTNITEVDAASVYTLPAGADFLMCYSVAEGYYSHRETVNGSWYIQDLCEMLGKYGSSLEFTELLTLVNRKVSQRRVDFCKDPSAIGKKQVPCFASMLTKKLHFFPKSN
B2: Nrdp1, endogenous in HEK293F cells (enzyme, UniProt Q9H4P4 1-317)
chain: MGYDVTRFQGDVDEDLICPICSGVLEEPVQAPHCEHAFCNACITQWFSQQQTCPVDRSVVTVAHLRPVPRIMRNMLSKLQIACDNAVFGCSAVVRLDNLMSHLSDCEHNPKRPVTCEQGCGLEMPKDELPNHNCIKHLRSVVQQQQTRIAELEKTSAEHKHQLAEQKRDIQLLKAYMRAIRSVNPNLQNLEETIEYNEILEWVNSLQPARVTRWGGMISTPDAVLQAVIKRSLVESGCPASIVNELIENAHERSWPQGLATLETRQMNRRYYENYVAKRIPGKQAVVVMACENQHMGDDMVQEPGLVMIFAHGVEEI
B3: caspase 7, endogenous in HEK293F cells (enzyme, UniProt P55210 1-303)
chain: MADDQGCIEEQGVEDSANEDSVDAKPDRSSFVPSLFSKKKKNVTMRSIKTTRDRVPTYQYNMNFEKLGKCIIINNKNFDKVTGMGVRNGTDKDAEALFKCFRSLGFDVIVYNDCSCAKMQDLLKKASEEDHTNAACFACILLSHGEENVIYGKDGVTPIKDLTAHFRGDRCKTLLEKPKLFFIQACRGTELDDGIQADSGPINDTDANPRYKIPVEADFLFAYSTVPGYYSWRSPGRGSWFVQALCSILEEHGKDLEIMQILTRVNDRVARHFESQSDDPHFHEKKQIPCVVSMLTKELYFSQ

target: 3×FLAG-tagged full-length mouse BIRC6 (mouse, UniProt O88738 1-4882); test: affinity purification with mass spectrometry

binding, binds:
B1
B2
B3
